Laboratory results: PubChem BioAssay AID2551 (National Center for Advancing Translational Sciences (NCATS), 2010)
Out of some 310,000 compounds screened, about 17,000 (5.5%) were called active. The shares of active, inactive and inconclusive entries below differ from those in the screen. Calls follow the shape of the dose curve; as a rule, active = well fitted inhibition curve with a large enough effect; inconclusive = small, poorly fitted or top-dose-only effect, or effect the other way; inactive = no such curve, though single readings can be large or run the other way. Potencies beside an inconclusive call are fits to weak or partial responses and may not hold up.

Amino acid sequences for entries named in this document (tags omitted). A change or cut given only in a name is not applied to a line headed by its entry.
UniProt P51450: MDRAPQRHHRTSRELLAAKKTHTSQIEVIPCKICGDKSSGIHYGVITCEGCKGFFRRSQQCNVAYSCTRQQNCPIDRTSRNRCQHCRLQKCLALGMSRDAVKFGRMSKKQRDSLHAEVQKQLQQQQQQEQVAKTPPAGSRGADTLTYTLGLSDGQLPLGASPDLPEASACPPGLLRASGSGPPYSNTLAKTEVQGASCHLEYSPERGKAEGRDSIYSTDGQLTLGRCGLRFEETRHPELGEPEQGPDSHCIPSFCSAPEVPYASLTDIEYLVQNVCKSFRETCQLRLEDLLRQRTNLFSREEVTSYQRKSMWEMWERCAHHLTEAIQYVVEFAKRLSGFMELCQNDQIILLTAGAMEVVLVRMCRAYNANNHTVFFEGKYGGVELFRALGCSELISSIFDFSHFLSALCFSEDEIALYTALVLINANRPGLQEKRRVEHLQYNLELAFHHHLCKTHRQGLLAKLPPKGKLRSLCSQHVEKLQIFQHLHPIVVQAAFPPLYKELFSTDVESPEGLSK

What follows are compounds tested against Nuclear receptor ROR-gamma (Mus musculus) (UniProt P51450) (assay: qHTS for inhibitors of ROR gamma transcriptional activity). Conditions: Drosophila S2 Gal4-RORgamma UAS-luciferase reporter, 20 h; series mostly up to 53.6 µM.
Procedure, shortened: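 Drosophila S2 cells stably expressing Gal4-DBD/mouse RORγ fusion under metallothionein promoter plus UAS-luciferase; compound 1 h, then 700 uM CuSO4 induction for 20 h at ambient temperature; inhibition read as reduced luminescence.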
Also: nearly all actives have a fitted effect of over 60% in size.
Potency is read from the fitted curve at half-maximal effect.

SMILES | Potency
Cc1ccccc1-n1c(-c2ccc(Cl)cc2)cnc1SCC(=O)NC1CCS(=O)(=O)C1 (stereo not given) | inconclusive: 25.1 µM [inhibitor, single point]
Fc1cccc(Cl)c1CNCc1cccnc1 | inactive
COc1ccc(C=O)c(OC)c1 | inactive
COc1ccc(C2=CC(c3sccc3C)n3nnnc3N2)cc1 (stereo not given) | inconclusive: 35.5 µM [inhibitor, single point]
CCc1nnc(NC(=O)CSc2nc(N)c(NC(=O)c3ccc(OC)cc3)c(=O)[nH]2)s1 | inconclusive: 35.5 µM [inhibitor, single point]
Cc1cc(C(=O)NC2CCCc3c2cnn3-c2ccc(C)c(C)c2)no1 (stereo not given) | inconclusive: 10 µM [activator, partial curve]
COCCN(C(=O)c1ccc(OC2CCN(S(=O)(=O)N(C)C)CC2)cc1)C(C)C | inactive
O=C(c1ccc(Cl)c(Cl)c1)N1CCC(=O)N(C(COCc2cccc(Cl)c2)Cc2ccccc2)CC1 (stereo not given) | inconclusive: 35.5 µM [activator, single point]
Cc1[nH]n(-c2ccccc2)c(=O)c1/C=N\NC(=O)C1COc2ccccc2O1 (stereo not given) | active: 0.794 µM
Cn1c(NCC(O)c2ccccc2)nc2c1c(=O)n(Cc1ccc(Cl)cc1)c(=O)n2C (stereo not given) | inconclusive: 31.6 µM [activator, single point]
CCCCC(C(=O)NC(C)(C)C)N(Cc1ccccc1)C(=O)c1snc(C(N)=O)c1N (stereo not given) | inconclusive: 15.8 µM [activator, single point]
CCOC(=O)N1CCC(N(CCN(C)C)C(=S)Nc2cccc(Cl)c2)CC1 | inactive
O=C(NN(C(=O)C1CC1)c1nc2ccccc2s1)C1CC1 | inconclusive: 31.6 µM [activator, single point]
COc1ccc2c(c1)CC/C2=N\OC(=O)c1cccc(C)c1 | inconclusive: 7.08 µM [inhibitor, partial curve]
Cc1cc(C(C)(C)C)oc1C(=O)N(CC(=O)NC1CCCC1)c1cccc(C(F)(F)F)c1 | inactive
COc1ccc(-c2cn(CCc3c[nH]c4ccccc34)nn2)cc1 | inconclusive: 11.2 µM [activator, partial curve, poor fit]
NNC(=O)c1ccc(COc2ccc3c(c2)CCC3)cc1 | inconclusive: 7.94 µM [inhibitor, partial curve]
COc1ccc(OC)c(S(=O)(=O)N(C)CC(=O)Nc2ccc3c(c2)OCCO3)c1 | inconclusive: 11.2 µM [activator, partial curve]
CC(=O)Nc1ccc(N/C=C/C(=O)c2ccco2)cc1 | inconclusive: 14.1 µM [inhibitor, single point]
S=C(NC1CCCCC1)NC1CCCCC1 | active: 2.82 µM
O=C(NNc1ncnc2c1cnn2-c1cccc(Cl)c1)c1ccco1 | active: 5.01 µM
CCCSc1nc(N2CCOCC2)c2c(c1C#N)CC(C)(C)SC2 | inconclusive: 5.62 µM [inhibitor, single point]
COC(=O)COc1ccc2oc(=O)cc(-c3cc4cccc(OC)c4o3)c2c1 | inactive
CCC(C)C(=O)Nc1nccs1 (stereo not given) | active: 5.62 µM
O=C(NC(=S)Nc1ccccc1Br)C1CCCC1 | active: 3.16 µM

SMILES | Potency
CO/N=C(/CS(=O)(=O)Cc1ccccc1Cl)c1ccc(Cl)cc1Cl | inconclusive: 15.8 µM [activator, single point]
Cc1nc2ccc(NC(=O)NCc3ccco3)cc2s1 | inconclusive: 2.51 µM [activator, partial curve, poor fit]
Cc1nn2c(N3CCOCC3)c3c(nc2c1-c1ccccc1)CCCC3 | inconclusive: 0.794 µM [activator, single point]
CC(C)c1c(C(=O)N/N=C/C=C/c2ccccc2)nnn1-c1nonc1N | active: 4.47 µM
O=C(CSc1ncccn1)NCCc1ccccc1 | inconclusive: 0.562 µM [inhibitor, single point]
O=C(Nc1ccc2c(c1)OCCO2)Nc1ccc2c(c1)OCO2 | inconclusive: 14.1 µM [inhibitor, single point]
Fc1ccc2nc(Nc3nc4c(s3)CCCC4)sc2c1 | active: 3.16 µM
CCOc1ccccc1N1CCN(C(=S)NC(=O)C23CC4CC(CC(C4)C2)C3)CC1 | active: 3.55 µM
O=C1c2ccccc2S(=O)(=O)N1CC(O)Cn1c2ccccc2c2ccccc21 (stereo not given) | inconclusive: 11.2 µM [activator, single point]
Nn1c(Cc2cccc3ccccc23)nnc1SCC(=O)NC1CCS(=O)(=O)C1 (stereo not given) | inconclusive: 0.005 µM [inhibitor, full curve, poor fit]
Cc1ccc(OCc2ccc(C(=O)Nc3nc4ccccc4n3Cc3ccccc3)o2)c([N+](=O)[O-])c1 | inconclusive: 0.794 µM [inhibitor, full curve, poor fit]
COc1ccc(C(=O)Nc2ccccc2C(=O)NCc2ccco2)cc1OC | inactive
Cc1noc(C)c1COc1ccc(C(=O)OC(C)C(=O)Nc2ccc(S(=O)(=O)N3CCOCC3)cc2)cc1 (stereo not given) | inactive
CCCCCCCCCCCCCC[N+](C)(C)C | inconclusive: 3.16 µM [activator, full curve]
Cc1ccsc1-c1nc(-c2ccccc2)c(-c2ccccc2)[nH]1 | active: 3.98 µM
Cc1nnc(NC(=O)CSCc2ccccc2)s1 | inconclusive: 6.31 µM [inhibitor, single point]
Cn1cccc1/C=N/NC(=O)Cc1cccc2ccccc12 | inconclusive: 31.6 µM [inhibitor, single point]
COc1cccc2cc(-c3csc(NC(=O)CCC(=O)NCCCN4CCC(C)CC4)n3)c(=O)oc12 | inconclusive: 7.94 µM [inhibitor, partial curve]
CCOc1ccccc1NC(=S)N(CCN(C)C)C(C)c1ccncc1 (stereo not given) | inconclusive: 11.2 µM [inhibitor, partial curve]
Cc1ccc(OCc2cc(C(=O)N(C)Cc3cnn(-c4ccccc4C)c3)no2)cn1 | inconclusive: 15.8 µM [activator, partial curve]
Cc1ccccc1OCC(O)Cn1c(N2CCCCC2)nc2c1c(=O)[nH]c(=O)n2C (stereo not given) | inactive
COc1ccc(NC(=S)Nc2cc(C)ccn2)c(OC)c1 | active: 6.31 µM
COc1ccc(Nc2ncnc3c2cnn3Cc2ccccc2)cc1OC | inconclusive: 4.47 µM [activator, partial curve]
Cc1cccc2sc(NC(=O)C3CCN(S(=O)(=O)c4cc([N+](=O)[O-])ccc4Cl)CC3)nc12 | inconclusive: 14.1 µM [activator, partial curve]
CCC(=O)Nc1nc(C)c(-c2csc(Nc3cccc(O)c3)n2)s1 | inconclusive: 35.5 µM [activator, single point]

Shown with tabs: two of the compounds above
SMILES	Potency
COc1cccc2cc(-c3csc(NC(=O)CCC(=O)NCCCN4CCC(C)CC4)n3)c(=O)oc12	inconclusive: 7.94 µM [inhibitor, partial curve]
CCOc1ccccc1NC(=S)N(CCN(C)C)C(C)c1ccncc1 (stereo not given)	inconclusive: 11.2 µM [inhibitor, partial curve]

Carrying on.

SMILES | Potency
COCCn1c(=N)c(S(=O)(=O)c2ccc(F)cc2)cc2c(=O)n3ccccc3nc21 | inactive
CCOC(=O)c1c(-c2ccc(C)o2)csc1NC(=O)CN1CCC(C(N)=O)CC1 | inactive
O=C(NC(Nc1ncc(S(=O)(=O)c2ccc([N+](=O)[O-])cc2)s1)(C(F)(F)F)C(F)(F)F)c1ccc(Cl)cc1 | inconclusive: 35.5 µM [inhibitor, single point]
Cc1cccc(-n2cc(CN3CCN(Cc4nccn4C)CC3)c(-c3cccc(F)c3)n2)c1 | active: 11.2 µM
O=C(/C=C/c1ccccc1Cl)Nc1cccc(S(=O)(=O)NC2=NCCCCC2)c1 | inconclusive: 10 µM [activator, single point]
CCCc1nc(NCc2ccncc2)c2nnn(Cc3ccccc3F)c2n1 | inconclusive: 20 µM [activator, single point]
O=C(Nc1ccc(C(=O)N2CCCCC2)cc1)C1=CSCCO1 | inconclusive: 12.6 µM [inhibitor, single point]
Cc1ccc2nc(NC(=O)COC(=O)CSc3nc(C)cc(C)n3)sc2c1 | inconclusive: 35.5 µM [inhibitor, single point]
COc1cc(NC(=S)NCc2ccco2)c(OC)cc1Cl | active: 7.08 µM
CCOC(=O)CSc1nc(C(C)C)nc2sc(C)c(C)c12 | inactive
Oc1ccc(/C=N/NC(=S)NC2CC3CCC2C3)cc1 (stereo not given) | active: 2.51 µM
c1ccc(-n2ncc3c(NCc4ccco4)ncnc32)cc1 | inactive
C/C(=N\NC(=S)Nc1cccc(C)c1)c1cccc(N)c1 | active: 4.47 µM
C=CCNC(=O)c1onc(CSc2ccc(C(C)C)cc2)c1C(=O)O | inconclusive: 15.8 µM [inhibitor, single point]
COC(=O)CN1CC(=O)c2ccccc2S1(=O)=O | inactive
COc1ccc(/C=N/c2c(-c3ccc(OC)cc3)nc3n2CCS3)cc1 | inconclusive: 35.5 µM [inhibitor, single point]
CN1CCN(CCNC(=O)Nc2ccccc2C(F)(F)F)CC1 | inactive
C=CCOc1c(Br)cc(CNc2nccs2)cc1OC | active: 12.6 µM
S=C(NCCc1ccccn1)Nc1ccccc1 | active: 20 µM
COc1ccccc1CCNC(=O)c1ccc(Br)s1 | inactive
N#Cc1ccc(-c2csc(NC3=NCCCCC3)n2)cc1 | inconclusive: 7.08 µM [activator, partial curve]
COc1ccccc1CNC(=O)CCC(=O)N1CC(C)Sc2ccccc21 (stereo not given) | inactive
CCOC(=O)c1c(NC(=O)Cc2ccccc2)sc2c1CC(C)(C)NC2(C)C | inactive
Cc1ccsc1/C=N/N1CCN(c2ccccn2)CC1 | inconclusive: 15.8 µM [activator, single point]
CCc1nnc(NC(=O)CSc2nc3cccnc3n2Cc2ccccc2)s1 | inconclusive: 12.6 µM [inhibitor, partial curve, poor fit]

A stretch from the list above:
SMILES | Potency
COCCn1c(=N)c(S(=O)(=O)c2ccc(F)cc2)cc2c(=O)n3ccccc3nc21 | inactive
CCOC(=O)c1c(-c2ccc(C)o2)csc1NC(=O)CN1CCC(C(N)=O)CC1 | inactive
O=C(NC(Nc1ncc(S(=O)(=O)c2ccc([N+](=O)[O-])cc2)s1)(C(F)(F)F)C(F)(F)F)c1ccc(Cl)cc1 | inconclusive: 35.5 µM [inhibitor, single point]
Cc1cccc(-n2cc(CN3CCN(Cc4nccn4C)CC3)c(-c3cccc(F)c3)n2)c1 | active: 11.2 µM
O=C(/C=C/c1ccccc1Cl)Nc1cccc(S(=O)(=O)NC2=NCCCCC2)c1 | inconclusive: 10 µM [activator, single point]
CCCc1nc(NCc2ccncc2)c2nnn(Cc3ccccc3F)c2n1 | inconclusive: 20 µM [activator, single point]
O=C(Nc1ccc(C(=O)N2CCCCC2)cc1)C1=CSCCO1 | inconclusive: 12.6 µM [inhibitor, single point]
Cc1ccc2nc(NC(=O)COC(=O)CSc3nc(C)cc(C)n3)sc2c1 | inconclusive: 35.5 µM [inhibitor, single point]
COc1cc(NC(=S)NCc2ccco2)c(OC)cc1Cl | active: 7.08 µM
CCOC(=O)CSc1nc(C(C)C)nc2sc(C)c(C)c12 | inactive
Oc1ccc(/C=N/NC(=S)NC2CC3CCC2C3)cc1 (stereo not given) | active: 2.51 µM
c1ccc(-n2ncc3c(NCc4ccco4)ncnc32)cc1 | inactive
C/C(=N\NC(=S)Nc1cccc(C)c1)c1cccc(N)c1 | active: 4.47 µM
C=CCNC(=O)c1onc(CSc2ccc(C(C)C)cc2)c1C(=O)O | inconclusive: 15.8 µM [inhibitor, single point]
COC(=O)CN1CC(=O)c2ccccc2S1(=O)=O | inactive
COc1ccc(/C=N/c2c(-c3ccc(OC)cc3)nc3n2CCS3)cc1 | inconclusive: 35.5 µM [inhibitor, single point]
CN1CCN(CCNC(=O)Nc2ccccc2C(F)(F)F)CC1 | inactive
C=CCOc1c(Br)cc(CNc2nccs2)cc1OC | active: 12.6 µM
S=C(NCCc1ccccn1)Nc1ccccc1 | active: 20 µM
COc1ccccc1CCNC(=O)c1ccc(Br)s1 | inactive
N#Cc1ccc(-c2csc(NC3=NCCCCC3)n2)cc1 | inconclusive: 7.08 µM [activator, partial curve]
